Data as given in publication doi:10.1101/2020.08.03.234229.
Where a chain is given by its changes, count along the chain named. Names may count otherwise. These are yes or no findings as the source states them, for the method shown. For some assays here: Binding seen in cells or lysates may run through a third protein. Some entries that bind do so weakly or less than the wild type. For some assays here: Where a sequence is shown, tags or fusion partners need not be part of it.

T1: His6-TSEN15, expressed in HEK293 cells (human) (UniProt Q8WW01)
T1 sequence: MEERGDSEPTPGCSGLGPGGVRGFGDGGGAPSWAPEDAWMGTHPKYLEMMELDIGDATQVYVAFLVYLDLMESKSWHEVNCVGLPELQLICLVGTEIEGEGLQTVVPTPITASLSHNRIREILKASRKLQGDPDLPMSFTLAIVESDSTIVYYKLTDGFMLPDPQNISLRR

T2: endogenous TSEN34 of human fibroblasts (human (endogenous in primary skin fibroblasts)) (UniProt Q9BSV6)
T2 sequence: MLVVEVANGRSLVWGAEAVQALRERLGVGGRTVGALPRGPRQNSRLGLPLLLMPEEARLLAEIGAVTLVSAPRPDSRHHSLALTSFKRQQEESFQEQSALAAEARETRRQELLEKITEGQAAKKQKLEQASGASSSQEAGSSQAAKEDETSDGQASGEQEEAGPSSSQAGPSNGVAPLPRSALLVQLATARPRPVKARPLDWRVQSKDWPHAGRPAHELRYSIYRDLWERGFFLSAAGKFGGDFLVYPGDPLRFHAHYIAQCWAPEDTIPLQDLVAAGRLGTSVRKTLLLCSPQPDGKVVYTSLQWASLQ

T3: tRNA splicing endonuclease subunit TSEN15 (human) (UniProt Q8WW01)
T3 sequence: T1 sequence

B1: TSEN54 A307S (PCH mutation), expressed in HEK293 cells (protein, UniProt Q7Z6J9 1-526)
chain: MEPEPEPAAVEVPAGRVLSARELFAARSRSQKLPQRSHGPKDFLPDGSAAQAERLRRCREELWQLLAEQRVERLGSLVAAEWRPEEGFVELKSPAGKFWQTMGFSEQGRQRLHPEEALYLLECGSIHLFHQDLPLSIQEAYQLLLTDHTVTFLQYQVFSHLKRLGYVVRRFQPSSVLSPYERQLNLDASVQHLEDGDGKRKRSSSSPRSINKKAKALDNSLQPKSLAASSPPPCSQPSQCPEEKPQESSPMKGPGGPFQLLGSLGPSPGPAREGVGCSWESGRAENGVTGAGKRRWNFEQISFPNMSSDSRHTLLRAPAPELLPANVAGRETDAESWCQKLNQRKEKLSRREREHHAEAAQFQEDVNADPEVQRCSSWREYKELLQRRQVQRSQRRAPHLWGQPVTPLLSPGQASSPAVVLQHISVLQTTHLPDGGARLLEKSGGLEIIFDVYQADAVATFRKNNPGKPYARMCISGFDEPVPDLCSLKRLSYQSGDVPLIFALVDHGDISFYSFRDFTLPQDVGH
B2: TSEN54 S93P (PCH mutation), expressed in HEK293 cells (protein, UniProt Q7Z6J9 1-526)
chain: B1 chain with S93P, S307A
B3: TSEN34, expressed in HEK293 cells (protein, UniProt Q9BSV6 1-310)
chain: T2 sequence
B4: TSEN34 R58W (PCH mutation), expressed in HEK293 cells (protein, UniProt Q9BSV6 1-310)
chain: T2 sequence with R58W
B5: TSEN2, expressed in HEK293 cells (protein, UniProt Q8NCE0 1-465)
chain: MAEAVFHAPKRKRRVYETYESPLPIPFGQDHGPLKEFKIFRAEMINNNVIVRNAEDIEQLYGKGYFGKGILSRSRPSFTISDPKLVAKWKDMKTNMPIITSKRYQHSVEWAAELMRRQGQDESTVRRILKDYTKPLEHPPVKRNEEAQVHDKLNSGMVSNMEGTAGGERPSVVNGDSGKSGGVGDPREPLGCLQEGSGCHPTTESFEKSVREDASPLPHVCCCKQDALILQRGLHHEDGSQHIGLLHPGDRGPDHEYVLVEEAECAMSEREAAPNEELVQRNRLICRRNPYRIFEYLQLSLEEAFFLVYALGCLSIYYEKEPLTIVKLWKAFTVVQPTFRTTYMAYHYFRSKGWVPKVGLKYGTDLLLYRKGPPFYHASYSVIIELVDDHFEGSLRRPLSWKSLAALSRVSVNVSKELMLCYLIKPSTMTDKEMESPECMKRIKVQEVILSRWVSSRERSDQDDL
B6: TSEN2 Y309C (PCH mutation), expressed in HEK293 cells (protein, UniProt Q8NCE0 1-465)
chain: B5 chain with Y309C
B7: endogenous TSEN2 of human fibroblasts (protein, UniProt Q8NCE0 1-465)
chain: B5 chain
B8: TSEN54 S93P (PCH mutation), from insect cells (protein, UniProt Q7Z6J9 1-526)
chain: B1 chain with S93P, S307A
B9: TSEN54 A307S (PCH mutation), from insect cells (protein, UniProt Q7Z6J9 1-526)
chain: B1 chain
B10: TSEN34 R58W (PCH mutation), from insect cells (protein, UniProt Q9BSV6 1-310)
chain: T2 sequence with R58W
B11: TSEN34 H255A (active site mutant) (protein, UniProt Q9BSV6 1-310)
chain: T2 sequence with H255A
B12: tRNA splicing endonuclease subunit TSEN2 (protein, UniProt Q8NCE0 1-465)
chain: B5 chain
B13: TSEN2 H377A (active site mutant) (protein, UniProt Q8NCE0 1-465)
chain: B5 chain with H377A
B14: TSEN2 Y309C (PCH mutation), from insect cells (protein, UniProt Q8NCE0 1-465)
chain: B5 chain with Y309C

What follows are binders tested against T1, His6-TSEN15, expressed in HEK293 cells (human) (assay: pull-down).

Row | binding | Binder
1 | binds | B1
2 | binds | B2
3 | binds | B3
4 | binds | B4
5 | binds | B5
6 | binds | B6

The binders below were run against T2, endogenous TSEN34 of human fibroblasts (human (endogenous in primary skin fibroblasts)) (assay: co-IP).

Row | binding | Binder
7 | binds | B7

What follows are binders tested against T3, tRNA splicing endonuclease subunit TSEN15 (human) (assay: co-expression and co-purification).

Row | binding | Binder
8 | binds | B8
9 | binds | B9
10 | binds | B10
11 | binds | B11
12 | binds | B12
13 | binds | B13
14 | binds | B14
